# The other results are listed elsewhere or left out.
# Experiments:
# Experiment in all cases: glycan array binding signal (z-score within array); higher = stronger binding
# Conditions in all cases: glycan notation: IUPAC condensed, linker removed
# [1] = molecular target: Fuc(a1-2)[GalNAc(a1-3)]Gal(b1-4)Glc
# In short: (§1)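 The Consortium for Functional Glycomics database supplied 3228 glycan arrays, of which those lacking an available protein sequence were dropped. The binding signal, a within-array Z-score, was averaged across arrays of the same protein sequence and across linkers. Negative scores can be read as non-binding.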
# [2] = molecular target: Fuc(a1-2)[GalNAc(a1-3)]Gal(b1-4)GlcNAc
# In short: as §1
# [3] = molecular target: Fuc(a1-2)[GalNAc(a1-3)]Gal(b1-4)GlcNAc(b1-2)Man(a1-3)[Fuc(a1-2)[GalNAc(a1-3)]Gal(b1-4)GlcNAc(b1-2)Man(a1-6)]Man(b1-4)GlcNAc(b1-4)GlcNAc
# In short: as §1
# [4] = molecular target: Fuc(a1-2)[GalNAc(a1-3)]Gal(b1-4)GlcNAc(b1-2)Man(a1-3)[Fuc(a1-2)[GalNAc(a1-3)]Gal(b1-4)GlcNAc(b1-2)Man(a1-6)]Man(b1-4)GlcNAc(b1-4)[Fuc(a1-6)]GlcNAc
# In short: as §1
# [5] = molecular target: Fuc(a1-2)[GalNAc(a1-3)]Gal(b1-4)GlcNAc(b1-3)Gal(b1-4)GlcNAc
# In short: as §1
# [6] = molecular target: Fuc(a1-2)[GalNAc(a1-3)]Gal(b1-4)GlcNAc(b1-3)Gal(b1-4)GlcNAc(b1-3)Gal(b1-4)GlcNAc
# In short: as §1
# [7] = molecular target: Fuc(a1-2)[GalNAc(a1-3)]Gal(b1-4)GlcNAc(b1-3)GalNAc
# In short: as §1
# [8] = molecular target: Fuc(a1-2)[GalNAc(a1-3)]Gal(b1-4)[Fuc(a1-3)]GlcNAc
# In short: as §1
# [9] = molecular target: Fuc(a1-2)[GalNAc(a1-3)]Gal(b1-4)[Fuc(a1-3)]GlcNAc(b1-3)GalNAc
# In short: as §1
# [10] = molecular target: Fuc(a1-2)[GalNAc(a1-4)]Gal(b1-4)GlcNAc
# In short: as §1
# [11] = molecular target: Fuc(a1-2)[GalNAc(b1-3)]Gal
# In short: as §1
# [12] = molecular target: Fuc(a1-3)GlcNAc
# In short: as §1
# [13] = molecular target: Fuc(a1-3)[Gal(b1-4)]Glc6S
# In short: as §1
# [14] = molecular target: Fuc(a1-3)[Gal(b1-4)]GlcNAc
# In short: as §1
# [15] = molecular target: Fuc(a1-3)[Gal(b1-4)]GlcNAc(b1-2)Man(a1-3)[Fuc(a1-3)[Gal(b1-4)]GlcNAc(b1-2)Man(a1-6)]Man(b1-4)GlcNAc(b1-4)GlcNAc
# In short: as §1
# [16] = molecular target: Fuc(a1-3)[Gal(b1-4)]GlcNAc(b1-2)Man(a1-3)[Fuc(a1-3)[Gal(b1-4)]GlcNAc(b1-2)Man(a1-6)]Man(b1-4)GlcNAc(b1-4)[Fuc(a1-6)]GlcNAc
# In short: as §1
# [17] = molecular target: Fuc(a1-3)[Gal(b1-4)]GlcNAc(b1-3)Gal(b1-3)[Fuc(a1-4)]GlcNAc
# In short: as §1
# [18] = molecular target: Fuc(a1-3)[Gal(b1-4)]GlcNAc(b1-3)GalNAc
# In short: as §1
# [19] = molecular target: Fuc(a1-3)[Gal(b1-4)]GlcNAc(b1-4)Gal(b1-4)[Fuc(a1-3)]GlcNAc
# In short: as §1
# [20] = molecular target: Fuc(a1-3)[Gal(b1-4)]GlcNAc(b1-4)Gal(b1-4)[Fuc(a1-3)]GlcNAc(b1-4)Gal(b1-4)[Fuc(a1-3)]GlcNAc
# In short: as §1
# [21] = molecular target: Fuc(a1-3)[Gal(b1-4)]GlcNAc(b1-6)GalNAc
# In short: as §1
# [22] = molecular target: Fuc(a1-3)[Gal(b1-4)]GlcNAc(b1-6)[Gal(b1-3)GlcNAc(b1-3)]Gal(b1-4)Glc
# In short: as §1
# [23] = molecular target: Fuc(a1-3)[Gal(b1-4)]GlcNAc(b1-6)[Neu5Ac(a2-3)Gal(b1-3)]GalNAc
# In short: as §1
# [24] = molecular target: Fuc(a1-3)[Gal(b1-4)]GlcNAc6S
# In short: as §1
# [25] = molecular target: Fuc(a1-3)[Gal3S(b1-4)]GlcNAc
# In short: as §1
# [26] = molecular target: Fuc(a1-3)[Gal3S(b1-4)]GlcNAc6S
# In short: as §1
# [27] = molecular target: Fuc(a1-3)[GalNAc(b1-4)]GlcNAc
# In short: as §1
# [28] = molecular target: Fuc(a1-4)GlcNAc
# In short: as §1
# [29] = molecular target: Fuc(b1-3)GlcNAc
# In short: as §1
# [30] = molecular target: Gal(a1-2)Gal
# In short: as §1
binder,measurement,setting,value
"NanH (Corynebacterium diphtheriae), C6JSW6 (protein) MYSSNRTYSRAILGLSAVLTLSFTSLVAPVNAEEPETVVPATAELEGEVAATLPSAETGLLDAAPPKPVARGAAGDLQLPAVNEKEVFEEGRVIRAPEPDQSRCYRIPALVTAKNGDLLLAFDNRYGGGDGAKTWCRDAPYENMKRINRQNMQTDIQLYRSVDNGQSFEDFGYIAQGTADVRELSYTDPALVTDRTTGKIFAFFVRAYDYRVGQSSAGFNEGDVEAEIQKRDVQDTVVVESLDGGQTWGNMRLLSALTAKVSSISTGDTIFDGRGRFVTSGAGIQLQYGEHAGRLIVPISVDIDPKDSAKFINLAIYSDDHGQTWQAGIGTAGGAGFSGDVSKIVELSDGRLMMSSKDNDKPRWVSYSEDQGENWSTPKRKIIAPPQHPEKHNTGINVGLIRAYPNAPENSAAARVLLYSAPIDQRYSHKHTEDGRNNGWVMGSCDDGKTWSFGRQIEKNRFQYSSMTVMSDGNIGMVYESGDFSTGMNLKFAKFNMAWLGADCHSNEALGLTGDIDKEIVEAQEKAAEATKEAQEAAEKVQKLTEELAAARKENDELKNQVKGFKEAVGDLANEAEDLADKVFKLETAVTEAKEKATVAEKAASDAVTQLQKAESIAEEQKAKAESAAAEAQALREKLERLEGSILTVKENPEAEEIADLSSTAKDAADAARRAATDANGALSGQKQDEEKPAMGLMGILKVLAGIIPLVAIIATIFQTFRLPFNIPGMR",glycan array binding signal (z-score),[1],-0.096
same,glycan array binding signal (z-score),[2],0.823
same,glycan array binding signal (z-score),[3],-0.426
same,glycan array binding signal (z-score),[4],-0.586
same,glycan array binding signal (z-score),[5],0.149
same,glycan array binding signal (z-score),[6],0.612
same,glycan array binding signal (z-score),[7],-0.487
same,glycan array binding signal (z-score),[8],0.94
same,glycan array binding signal (z-score),[9],1.55
same,glycan array binding signal (z-score),[10],-0.114
same,glycan array binding signal (z-score),[11],-1.52
same,glycan array binding signal (z-score),[12],-0.067
same,glycan array binding signal (z-score),[13],-0.325
same,glycan array binding signal (z-score),[14],-0.243
same,glycan array binding signal (z-score),[15],-2.07
same,glycan array binding signal (z-score),[16],-0.264
same,glycan array binding signal (z-score),[17],-0.443
same,glycan array binding signal (z-score),[18],-0.067
same,glycan array binding signal (z-score),[19],0.083
same,glycan array binding signal (z-score),[20],-1.15
same,glycan array binding signal (z-score),[21],2.36
same,glycan array binding signal (z-score),[22],-0.136
same,glycan array binding signal (z-score),[23],0.377
same,glycan array binding signal (z-score),[24],-0.376
same,glycan array binding signal (z-score),[25],-0.688
same,glycan array binding signal (z-score),[26],-0.936
same,glycan array binding signal (z-score),[27],-0.575
same,glycan array binding signal (z-score),[28],0.273
same,glycan array binding signal (z-score),[29],-0.108
same,glycan array binding signal (z-score),[30],-1.72

# Two records picked at random from the list so far, as already listed:
binder,measurement,setting,value
"NanH (Corynebacterium diphtheriae), C6JSW6 (protein) MYSSNRTYSRAILGLSAVLTLSFTSLVAPVNAEEPETVVPATAELEGEVAATLPSAETGLLDAAPPKPVARGAAGDLQLPAVNEKEVFEEGRVIRAPEPDQSRCYRIPALVTAKNGDLLLAFDNRYGGGDGAKTWCRDAPYENMKRINRQNMQTDIQLYRSVDNGQSFEDFGYIAQGTADVRELSYTDPALVTDRTTGKIFAFFVRAYDYRVGQSSAGFNEGDVEAEIQKRDVQDTVVVESLDGGQTWGNMRLLSALTAKVSSISTGDTIFDGRGRFVTSGAGIQLQYGEHAGRLIVPISVDIDPKDSAKFINLAIYSDDHGQTWQAGIGTAGGAGFSGDVSKIVELSDGRLMMSSKDNDKPRWVSYSEDQGENWSTPKRKIIAPPQHPEKHNTGINVGLIRAYPNAPENSAAARVLLYSAPIDQRYSHKHTEDGRNNGWVMGSCDDGKTWSFGRQIEKNRFQYSSMTVMSDGNIGMVYESGDFSTGMNLKFAKFNMAWLGADCHSNEALGLTGDIDKEIVEAQEKAAEATKEAQEAAEKVQKLTEELAAARKENDELKNQVKGFKEAVGDLANEAEDLADKVFKLETAVTEAKEKATVAEKAASDAVTQLQKAESIAEEQKAKAESAAAEAQALREKLERLEGSILTVKENPEAEEIADLSSTAKDAADAARRAATDANGALSGQKQDEEKPAMGLMGILKVLAGIIPLVAIIATIFQTFRLPFNIPGMR",glycan array binding signal (z-score),[13],-0.325
same,glycan array binding signal (z-score),[2],0.823

# From the supplement of paper PMC8728848
